From article PMC5316860 come the findings set out here.

Sequences of proteins named here, by UniProt entry; tags and fusion partners are left off. A change or cut given only in a name is not applied to a line headed by its entry.
UniProt Q93008: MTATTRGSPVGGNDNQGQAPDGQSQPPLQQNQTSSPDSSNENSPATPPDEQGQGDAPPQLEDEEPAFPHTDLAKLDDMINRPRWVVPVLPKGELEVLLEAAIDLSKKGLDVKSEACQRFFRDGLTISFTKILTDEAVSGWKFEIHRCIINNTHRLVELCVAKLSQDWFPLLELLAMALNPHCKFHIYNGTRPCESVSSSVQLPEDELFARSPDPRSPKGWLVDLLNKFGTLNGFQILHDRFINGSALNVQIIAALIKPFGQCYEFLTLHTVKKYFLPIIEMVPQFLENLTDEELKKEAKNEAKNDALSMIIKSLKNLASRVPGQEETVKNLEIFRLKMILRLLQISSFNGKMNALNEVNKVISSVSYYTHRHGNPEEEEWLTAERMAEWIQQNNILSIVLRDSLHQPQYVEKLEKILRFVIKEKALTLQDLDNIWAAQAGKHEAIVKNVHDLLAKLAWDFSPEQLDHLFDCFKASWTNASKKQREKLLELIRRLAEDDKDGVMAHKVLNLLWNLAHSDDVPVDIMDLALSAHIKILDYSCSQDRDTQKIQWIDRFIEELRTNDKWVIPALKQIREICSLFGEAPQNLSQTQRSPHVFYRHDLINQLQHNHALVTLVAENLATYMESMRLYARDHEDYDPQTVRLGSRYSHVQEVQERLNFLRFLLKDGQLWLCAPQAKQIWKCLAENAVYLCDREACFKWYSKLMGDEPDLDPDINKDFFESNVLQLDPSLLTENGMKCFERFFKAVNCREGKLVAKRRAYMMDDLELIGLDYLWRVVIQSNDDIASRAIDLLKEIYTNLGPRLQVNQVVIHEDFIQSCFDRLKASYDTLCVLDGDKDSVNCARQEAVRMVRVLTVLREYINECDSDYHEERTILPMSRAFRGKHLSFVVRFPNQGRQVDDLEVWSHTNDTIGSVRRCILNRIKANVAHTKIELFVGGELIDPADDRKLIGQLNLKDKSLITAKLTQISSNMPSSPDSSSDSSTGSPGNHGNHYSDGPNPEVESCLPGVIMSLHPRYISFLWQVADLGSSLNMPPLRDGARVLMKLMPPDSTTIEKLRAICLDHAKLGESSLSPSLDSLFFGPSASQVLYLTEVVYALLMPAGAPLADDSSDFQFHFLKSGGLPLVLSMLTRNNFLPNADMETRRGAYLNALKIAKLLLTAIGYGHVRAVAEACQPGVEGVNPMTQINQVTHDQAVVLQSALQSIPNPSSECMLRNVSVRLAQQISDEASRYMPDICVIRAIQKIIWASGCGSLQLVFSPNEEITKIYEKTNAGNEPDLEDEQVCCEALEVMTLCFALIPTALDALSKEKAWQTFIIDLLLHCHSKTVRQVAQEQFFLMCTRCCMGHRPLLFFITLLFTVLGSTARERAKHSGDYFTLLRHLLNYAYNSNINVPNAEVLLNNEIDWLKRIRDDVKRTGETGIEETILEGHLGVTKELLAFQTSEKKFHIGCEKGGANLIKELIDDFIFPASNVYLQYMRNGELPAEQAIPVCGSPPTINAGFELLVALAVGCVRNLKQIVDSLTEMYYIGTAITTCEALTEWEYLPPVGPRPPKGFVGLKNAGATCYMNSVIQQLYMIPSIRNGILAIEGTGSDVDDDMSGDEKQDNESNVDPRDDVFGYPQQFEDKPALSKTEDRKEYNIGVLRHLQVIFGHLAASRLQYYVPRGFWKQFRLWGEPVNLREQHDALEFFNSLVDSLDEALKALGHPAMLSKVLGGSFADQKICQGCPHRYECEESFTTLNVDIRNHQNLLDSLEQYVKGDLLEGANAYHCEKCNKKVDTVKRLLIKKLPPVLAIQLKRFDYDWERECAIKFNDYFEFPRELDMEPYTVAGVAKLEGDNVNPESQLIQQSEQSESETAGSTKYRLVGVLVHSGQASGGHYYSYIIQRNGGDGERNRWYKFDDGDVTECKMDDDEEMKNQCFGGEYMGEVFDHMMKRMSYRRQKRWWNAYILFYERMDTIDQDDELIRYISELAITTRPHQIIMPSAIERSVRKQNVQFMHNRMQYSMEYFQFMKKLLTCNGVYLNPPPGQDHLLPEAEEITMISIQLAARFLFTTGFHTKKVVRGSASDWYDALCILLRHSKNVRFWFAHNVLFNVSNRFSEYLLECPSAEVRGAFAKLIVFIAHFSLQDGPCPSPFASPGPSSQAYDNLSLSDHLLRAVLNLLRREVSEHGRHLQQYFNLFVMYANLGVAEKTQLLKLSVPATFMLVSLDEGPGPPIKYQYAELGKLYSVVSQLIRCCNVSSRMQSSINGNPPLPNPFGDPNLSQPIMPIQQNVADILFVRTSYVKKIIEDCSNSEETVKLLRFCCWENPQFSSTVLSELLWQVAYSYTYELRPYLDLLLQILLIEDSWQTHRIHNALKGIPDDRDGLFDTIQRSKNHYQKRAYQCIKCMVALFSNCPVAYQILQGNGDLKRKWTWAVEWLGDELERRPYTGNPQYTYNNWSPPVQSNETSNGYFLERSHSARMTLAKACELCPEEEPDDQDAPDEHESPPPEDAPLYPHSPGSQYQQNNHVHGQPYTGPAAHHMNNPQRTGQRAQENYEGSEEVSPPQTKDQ

Results are given in words; binding and its absence hold for the method and conditions named. Binding seen in cells or lysates may run through a third protein. Some entries that bind do so weakly or less than the wild type. For part of these data: Tags and fused reporters may be left off the sequences shown.

The target in assay [1] is T1, HA-Ets-1 (WT) (human) (UniProt P14921).
T1 sequence: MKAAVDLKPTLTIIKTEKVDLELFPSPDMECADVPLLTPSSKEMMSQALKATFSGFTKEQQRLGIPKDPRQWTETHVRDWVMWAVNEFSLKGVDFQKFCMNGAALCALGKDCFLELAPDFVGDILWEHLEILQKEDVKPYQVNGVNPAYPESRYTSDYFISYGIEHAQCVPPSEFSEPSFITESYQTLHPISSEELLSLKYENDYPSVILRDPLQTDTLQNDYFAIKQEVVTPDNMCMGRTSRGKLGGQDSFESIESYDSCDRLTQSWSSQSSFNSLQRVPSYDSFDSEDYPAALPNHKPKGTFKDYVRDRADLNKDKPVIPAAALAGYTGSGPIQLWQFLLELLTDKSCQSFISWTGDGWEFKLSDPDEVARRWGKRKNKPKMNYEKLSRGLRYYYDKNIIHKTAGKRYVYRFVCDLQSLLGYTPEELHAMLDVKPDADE
The experiment in a line: co-IP; FLAG-Usp9x constructs co-expressed with HA-Ets-1 in HEK293T, 48 h; lysate adjusted to 100 mM NaCl and 0.125% IGEPAL CA-630; anti-HA (Ets-1) overnight, protein A/G, 4 °C; anti-FLAG immunoblot. (In general: In western blotting, separated proteins are transferred to a membrane and probed.)

Assay [2] concerns the target T2, Ets-1, endogenous in SK-Mel2 cells (human (endogenous in SK-Mel2)) (UniProt P14921).
T2 sequence: T1 sequence
In words: co-IP; endogenous proteins in SK-Mel2 lysate; lysis in 25 mM HEPES pH 7.5, 400 mM NaCl, 0.5% IGEPAL CA-630, diluted to 100 mM NaCl and 0.125% IGEPAL; anti-Usp9x or anti-Ets-1 (reciprocal) against rabbit control IgG, protein A/G agarose, 4 °C; immunoblot.

Take “FLAG-Usp9x (full-length) (from UniProt Q93008 1-2554) (enzyme)”: the binding result in assay [1] was “binds”.

With “FLAG-Usp9x-CDM (catalytic domain mutant, C1566A) (from UniProt Q93008 1-2554) (enzyme)”, in assay [1], the binding entry is on record as “binds”.

Turning to “Usp9x (ubiquitin specific peptidase 9, X-linked), endogenous in SK-Mel2 cells (from UniProt Q93008 1-2554) (enzyme)”, the binding entry in assay [2] is on record as “binds”.
